US20190389956A1 (INSTITUTE OF BIOPHYSICS CHINESE ACADEMY OF SCIENCES, published 2019)
Results are given in words; binding and its absence hold for the method and conditions named. Some binding calls cover weakened binding; strength is not graded here.

Protein sequences, listed by entry. Tags and fused reporters are not part of them. Lines headed by an entry give the natural chain unless they say otherwise; changes in a name come on top. Chains listed by the source or under a name are the forms on record and can include a tag or linker.
human IFNAR1 truncation lacking extracellular SD3, fused with GFP, expressed on HEK293T cells (P17181, form named): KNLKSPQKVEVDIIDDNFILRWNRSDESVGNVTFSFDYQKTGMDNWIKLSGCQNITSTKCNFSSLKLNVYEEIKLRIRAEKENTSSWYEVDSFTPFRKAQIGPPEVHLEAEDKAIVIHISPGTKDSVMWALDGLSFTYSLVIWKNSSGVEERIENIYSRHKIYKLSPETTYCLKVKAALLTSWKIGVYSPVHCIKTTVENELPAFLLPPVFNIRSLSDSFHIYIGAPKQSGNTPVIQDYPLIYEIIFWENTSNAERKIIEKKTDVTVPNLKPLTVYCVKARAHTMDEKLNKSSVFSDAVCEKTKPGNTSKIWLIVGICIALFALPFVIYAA
human IFNAR1 truncation lacking extracellular SD2, fused with GFP, expressed on HEK293T cells (P17181, form named): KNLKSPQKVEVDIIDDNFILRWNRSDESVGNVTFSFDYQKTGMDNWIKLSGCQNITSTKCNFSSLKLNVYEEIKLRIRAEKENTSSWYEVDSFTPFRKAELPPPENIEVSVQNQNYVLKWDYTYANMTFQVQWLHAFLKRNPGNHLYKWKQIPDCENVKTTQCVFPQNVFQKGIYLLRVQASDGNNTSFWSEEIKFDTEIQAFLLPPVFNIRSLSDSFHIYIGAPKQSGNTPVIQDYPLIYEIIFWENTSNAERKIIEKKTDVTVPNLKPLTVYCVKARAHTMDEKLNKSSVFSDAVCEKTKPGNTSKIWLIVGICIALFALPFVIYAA

B1: mouse anti-human IFNAR1 monoclonal antibody 10C9 (antibody, V domains shown)
VH: QIQLVQSGPELKKPGETVKISCKASGYTFTNYGVNWMKQAPGKGLKWMGWINTYTGEPTYADDFKGRFAFSLETSASTAYLQINNLKNEDTATYFCAREGVYYYGDWAWLAYWGQGTLVTVSA
VL: DIVMTQSQKFISTSVGDRVSVTCKASQNVGTNVAWYQQKPGQSPKTLIYSTSYRYNGVPDRFTGSGSGTDFTLTISNVQSEDLAEYFCQQYNSYYTFGGGTKLEIK
notes: Mouse monoclonal IgG from a hybridoma, detected with anti-mouse IgG; also called antibody secreted by hybridoma cell line 10C9 (CGMCC No. 12543)
B2: mouse anti-human IFNAR1 monoclonal antibody 10C2 (antibody, V domains shown)
VH: QIQLVQSGPELKKPGETVKISCKASGYTFTNYGMNWVKQAPGKGLKWMGWINTYTGEPTYSDDFKGRFAFSLETSASTANLQINNLKDEDAATYFCAREGAIYYGDYVYFGVWGAGTTVTVSS
VL: DIVMTQSQKFMSTSVGDRVSITCKASQNVGTAVAWYQEKPGQSPKLLIYSASNRYTGVPDRFTGSGSGTAFTLTISNMQSEDLADYFCQQYYNYPLTFGAGTKLEVKR
notes: Mouse monoclonal IgG from a hybridoma, detected with anti-mouse IgG; also called antibody secreted by hybridoma cell line 10C2 (CGMCC No. 12542)

How the values were obtained:
[1] = molecular target: human IFNAR1 truncation lacking extracellular SD3, fused with GFP, expressed on HEK293T cells (human) (UniProt P17181); assay: flow cytometry on transfected HEK293T cells, PE anti-mouse IgG
[2] = molecular target: human IFNAR1 truncation lacking extracellular SD2, fused with GFP, expressed on HEK293T cells (human) (UniProt P17181); assay: as above

binding [1] | binding [2] | Binder
binds | binds | B1
binds | binds | B2
